The values below come from article PMC9482802.

By UniProt entry, the sequences of proteins in these tests, tags left out.
UniProt Q9NQB0: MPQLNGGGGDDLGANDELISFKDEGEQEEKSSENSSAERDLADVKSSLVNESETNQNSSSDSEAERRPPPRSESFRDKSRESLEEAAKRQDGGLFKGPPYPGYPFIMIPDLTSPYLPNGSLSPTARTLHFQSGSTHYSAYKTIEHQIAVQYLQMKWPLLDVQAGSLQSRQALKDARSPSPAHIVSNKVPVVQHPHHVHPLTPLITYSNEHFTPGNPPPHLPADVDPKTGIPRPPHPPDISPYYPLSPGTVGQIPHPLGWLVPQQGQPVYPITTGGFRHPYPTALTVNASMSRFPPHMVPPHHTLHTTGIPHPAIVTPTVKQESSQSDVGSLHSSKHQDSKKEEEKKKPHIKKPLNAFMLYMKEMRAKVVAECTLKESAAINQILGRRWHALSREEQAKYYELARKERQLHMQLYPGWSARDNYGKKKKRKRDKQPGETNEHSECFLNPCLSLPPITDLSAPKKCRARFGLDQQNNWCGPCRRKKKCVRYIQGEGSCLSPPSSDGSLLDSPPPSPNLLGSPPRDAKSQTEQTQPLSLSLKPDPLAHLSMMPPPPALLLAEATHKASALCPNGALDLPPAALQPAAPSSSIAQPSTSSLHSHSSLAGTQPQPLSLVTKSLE
UniProt Q04206: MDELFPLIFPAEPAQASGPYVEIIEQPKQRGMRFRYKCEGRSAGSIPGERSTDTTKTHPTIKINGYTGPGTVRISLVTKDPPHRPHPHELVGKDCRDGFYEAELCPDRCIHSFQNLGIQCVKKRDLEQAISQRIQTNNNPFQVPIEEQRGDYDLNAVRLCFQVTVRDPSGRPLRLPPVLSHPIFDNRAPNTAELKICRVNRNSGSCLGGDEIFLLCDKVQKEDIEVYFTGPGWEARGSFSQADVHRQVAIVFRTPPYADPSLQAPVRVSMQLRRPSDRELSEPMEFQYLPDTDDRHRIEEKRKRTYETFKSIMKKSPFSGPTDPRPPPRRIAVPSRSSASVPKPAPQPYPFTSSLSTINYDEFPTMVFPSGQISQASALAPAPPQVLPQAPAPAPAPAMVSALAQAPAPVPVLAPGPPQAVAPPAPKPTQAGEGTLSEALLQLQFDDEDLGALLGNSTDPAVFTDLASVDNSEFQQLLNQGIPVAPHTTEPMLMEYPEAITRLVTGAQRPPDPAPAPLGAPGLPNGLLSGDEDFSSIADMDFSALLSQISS

These are yes or no findings as the source states them, for the method shown. In cells and extracts the contact can be indirect. Some results given as binding are weak or reduced against the parent protein; the word gives no strength.

The assay has as its target HA-TCF4 (TCF7L2) (human) (UniProt Q9NQB0). Description: co-IP; U87 cells expressing HA-TCF4N, HA-TCF4 or HA-TCF4∆N together with the p65 vector (Flag-p65); IP using HA antibody, IgG as a negative control, immunoblot. For orientation: Immunoblotting shows a protein as a band on a membrane.

“Flag-p65 (RELA, p65 subunit of NF-κB) (from UniProt Q04206 1-551)”: the binding entry is recorded as “binds weakly”.
